These are yes or no findings as the source states them, for the method shown. Some binding calls cover weakened binding; strength is not graded here.
What was measured:
[1] = target: T1, human epithelial cell adhesion molecule (EpCAM) receptor, extracellular portion (human) (UniProt P16422); assay: Octet (BLI)
T1 sequence (looked up): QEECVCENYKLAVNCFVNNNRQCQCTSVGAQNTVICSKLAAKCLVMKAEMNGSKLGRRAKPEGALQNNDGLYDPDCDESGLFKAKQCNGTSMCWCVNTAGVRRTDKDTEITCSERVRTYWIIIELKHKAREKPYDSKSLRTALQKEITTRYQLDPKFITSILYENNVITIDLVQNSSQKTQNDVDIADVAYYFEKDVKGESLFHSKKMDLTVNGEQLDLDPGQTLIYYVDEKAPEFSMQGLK

[2] = target: T1, human epithelial cell adhesion molecule (EpCAM) receptor, extracellular portion (human); assay: Octet, target immobilized on the sensor, binder 20, 10, 5, 2.5, 1 and 0.5 nM, association to about 1000 s, dissociation to 1750 s
[3] = target: T1, human epithelial cell adhesion molecule (EpCAM) receptor, extracellular portion (human); assay: yeast surface display screen

Row | Binder | binding [1] | binding [2] | binding [3]
1 | gs linked dimer of EpCAMBind1_cterm_cys (designed binder, also called EpCAM1_dimer) DEERLRELVEELVKELGLSERYKRTLERHLRTALEQGYDEEQIRMNLEQLAQQAREIGGSGGSDEERLRELVEELVKELGLSERYKRTLERHLRTALEQGYDEEQIRMNLEQLAQQAREI | binds | binds | –
2 | EpcamBind1 (designed binder) DEERLRELVEELVKELGLSERAKRMLEQFLRSALEQGFDEEQIRMALEQLAEQAREI | – | – | binds

Source: patent publication US20250250301A1, “DE NOVO DESIGNED BINDERS TARGETING HUMAN EPCAM AND PDL1 RECEPTORS” (University of Washington, priority 2022, published 2025)
